Among all 360,000 compounds or so, about 7,500 (2.1%) were called active. This list was built around the results that the source calls inconclusive (neither active nor inactive); the mix of calls is not that of the screen. Calls follow the shape of the dose curve; as a rule, active = well fitted inhibition curve with a large enough effect; inconclusive = small, poorly fitted or top-dose-only effect, or effect the other way; inactive = flat fitted curve, though single readings scatter. Potencies of inconclusive entries are doubtful fits and often do not repeat.
Experiment: Nrf2 qHTS screen for inhibitors; also: nearly all actives have a fitted effect of over 60% in size
Settings: A549 ARE-Fluc reporter, luciferase luminescence, 18-24 h; series mostly up to 46 µM
Summary of the method: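 Reporter: ARE-Fluc in A549. Exposure: 18-24 h, 37 °C, 5% CO2, 5% FBS OPTI-MEM. Readouts: fluorescent cytotoxicity (CellTiter-Fluor), then luminescent Nrf2 signal after BugLite.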
Potency is read from the fitted curve at half-maximal effect.

Row | Compound | Potency
1 | O=C(Nc1ccccc1)Nc1nc(Nc2cc(F)cc(F)c2)nc(NC2CCCC2)n1 | inactive
2 | COc1ccc2oc(=O)c(C(=O)N3CCN(c4cc(Cl)ccc4Cl)CC3)cc2c1 | inconclusive: 23.1 µM [falling, partial curve]
3 | CC1CCCN(c2ccc3nc4ccccc4c(=O)n3n2)C1 (stereo not given) | inconclusive: 2.06 µM [activator, partial curve]
4 | CC(=O)Nc1ccc(/C=N/Nc2nncc3ccccc23)cc1 | inconclusive: 0.731 µM [activator, full curve, poor fit]
5 | CC(C)NC(=O)c1onc(CSc2ccccc2)c1C(=O)O | inconclusive: 6.51 µM [activator, full curve, poor fit]
6 | COc1ccccc1NS(=O)(=O)c1cc(NC(=O)C2CCC2)ccc1N1CCCCC1 | inconclusive: 16.4 µM [falling, partial curve, poor fit]
7 | O=C(c1cccs1)N1CCN(C(=O)c2cn(-c3ccccc3)nc2-c2ccccc2)CC1 | inconclusive: 9.2 µM [activator, partial curve, poor fit]
8 | O=C(NCc1ccco1)c1nc(-c2ccc(F)cc2)no1 | inconclusive: 14.6 µM [activator, partial curve, poor fit]
9 | COC(=O)c1cc(OC)c(OC)cc1NC(=S)Nc1cc(Cl)ccc1OC | inconclusive: 20.6 µM [falling, partial curve, poor fit]
10 | Cc1ccc2nc(-c3ccc(NC(=O)CN4C(=O)c5ccccc5C4=O)cc3)sc2c1 | inconclusive: 5.17 µM [activator, partial curve]
11 | CCOc1ccc(S(=O)(=O)N(C(C)=O)c2ccc3oc(C)c(C(=O)OC)c3c2)cc1 | active: 2.06 µM
12 | O=C(Cc1cccs1)N/N=C\c1ccc(O)cc1 | inconclusive: 7.31 µM [activator, partial curve]
13 | COCCn1ccc2c(OCC(=O)Nc3cc(OC)ccc3OC)cccc2c1=O | inconclusive: 23.1 µM [falling, partial curve, poor fit]
14 | Cc1cccc(-c2nnn(CC/C(N)=N/O)n2)c1 | inactive
15 | CC(C)(C)c1nnc2sc(SCC(O)=C(C#N)c3nc4ccccc4[nH]3)nn2c1=O | inconclusive: 5.17 µM [activator, full curve, poor fit]
16 | O=C(CSc1ccc2c(c1)OCCO2)Nc1cccnc1Cl | inconclusive: 29.1 µM [falling, single point]
17 | O=Cc1c(N2CCN(c3cccc(Cl)c3)CC2)nc2ccccn2c1=O | inconclusive: 29.1 µM [falling, single point]
18 | COc1ccc(NC(=S)NC(=O)c2ccccc2)cn1 | inconclusive: 0.58 µM [activator, full curve]
19 | O=C1N[C@@H](c2ccccc2)COC(=O)[C@@H](Cc2ccc(F)cc2)C/C=C\C[C@@H]1CC(=O)N(CCO)Cc1ccccc1 | inconclusive: 32.6 µM [falling, single point]
20 | O=C(N/N=C\c1ccc([N+](=O)[O-])o1)C1COc2ccccc2O1 (stereo not given) | inconclusive: 29.1 µM [falling, single point]
21 | CCC(CC)NC(=O)C1CCN(c2ccc(S(=O)(=O)N3CCOCC3)cc2[N+](=O)[O-])CC1 | inconclusive: 10.3 µM [falling, partial curve, poor fit]
22 | Cc1ccc(NC(=O)C(=O)NCCCN2CCCC2=O)cc1 | inconclusive: 29.1 µM [falling, single point]

Compounds 3 through 5, reprinted for reference:
Row | Compound | Potency
3 | CC1CCCN(c2ccc3nc4ccccc4c(=O)n3n2)C1 (stereo not given) | inconclusive: 2.06 µM [activator, partial curve]
4 | CC(=O)Nc1ccc(/C=N/Nc2nncc3ccccc23)cc1 | inconclusive: 0.731 µM [activator, full curve, poor fit]
5 | CC(C)NC(=O)c1onc(CSc2ccccc2)c1C(=O)O | inconclusive: 6.51 µM [activator, full curve, poor fit]

The list goes on.

Row | Compound | Potency
23 | CN(C)C(=O)NC(Nc1ccc(Cl)cc1Cl)C(Cl)(Cl)Cl (stereo not given) | inconclusive: 29.1 µM [falling, single point]
24 | Cn1c(=O)cc(SCC(=O)N2CCOCC2)c2ccc(Cl)cc21 | inconclusive: 25.9 µM [falling, single point]
25 | O=c1[nH]c2cccc(Cl)c2n(CCNc2ncc(C(F)(F)F)cc2Cl)c1=O | inconclusive: 25.9 µM [falling, partial curve, poor fit]
26 | Cc1ccc(-n2c(SCC(=O)Nc3nccs3)nc3c(c2=O)SCC3)cc1 | inconclusive: 29.1 µM [falling, single point]
27 | O=C(Nc1ccc(N2CCCCCC2)cc1)c1cccc(S(=O)(=O)N2CCOCC2)c1 | active: 16.4 µM
28 | COC(=O)c1ccc(Cl)cc1N(Cc1c(F)cccc1Cl)S(C)(=O)=O | active: 18.4 µM
29 | COc1cccc(Cn2nc(C(=O)O)c3ccccc3c2=O)c1 | inconclusive: 8.2 µM [falling, partial curve, poor fit]
30 | NC(=O)c1nsc(C(=O)N(c2cccc(F)c2)C(C(=O)NC2CCCC2)c2ccco2)c1N (stereo not given) | inconclusive: 29.1 µM [falling, single point]
31 | CCn1c(C)cc(C(=O)CSc2nnc(-c3ccco3)o2)c1C | inconclusive: 0.13 µM [falling, full curve, poor fit]
32 | CC(C)(C)C(=O)Nc1sc2c(c1C#N)CCCCC2 | inconclusive: 29.1 µM [activator, single point]
33 | CC1Cc2ccccc2N1C(=O)CN1CCN(S(=O)(=O)c2cccs2)CC1 (stereo not given) | inconclusive: 2.31 µM [activator, full curve, poor fit]
34 | CSc1nc(/C=C2\C=Nc3ccccc32)c(O)n1C | inconclusive: 2.59 µM [activator, full curve]
35 | Nc1cccc(N2C(=O)c3cccc4c(N)ccc(c34)C2=O)c1 | inactive
36 | CCCCOC(=O)Cn1nnc2sc(-c3ccccc3)cc2c1=O | inactive
37 | Cn1c(CSCc2ccc(F)cc2)nnc1SCC(=O)N1CCN(c2ccccc2)CC1 | active: 13 µM
38 | COc1ccc(S(=O)(=O)/N=C2/NC(=O)/C(=C\c3ccco3)S2)cc1 | inactive
39 | COc1ccc(CCNC(=O)CSc2cn(CCNC(=O)c3ccccc3F)c3ccccc23)cc1OC | inconclusive: 3.26 µM [activator, single point]
40 | Nc1cccc(-c2cc(-c3ccccc3)nc(-c3cccc(N)c3)n2)c1 | inconclusive: 23.1 µM [falling, single point]
41 | CN(Cc1ccsc1)C(=O)Cn1cc(Br)ccc1=O | inconclusive: 20.6 µM [activator, partial curve, poor fit]
42 | CCN1CCN(S(=O)(=O)c2ccc(Cl)c(C(=O)N(C)CCOc3ccc(Cl)cc3)c2)CC1 | inconclusive: 23.1 µM [falling, single point]
43 | Cc1ccccc1Cc1c(C)nc2c(C(=O)N3CCN(Cc4ccc5c(c4)OCO5)CC3)cnn2c1C | inconclusive: 7.31 µM [falling, partial curve, poor fit]
44 | O=c1oc2ccccc2cc1-c1csc(Cc2nc(-c3ccc(Cl)cc3)cs2)n1 | active: 20.6 µM

Row | Compound | Potency
45 | COc1cc(C2CC(=O)N3CN(Cc4ccccc4)CSC3=C2C#N)ccc1OCc1ccccc1 (stereo not given) | inconclusive: 25.9 µM [falling, single point]
46 | Cc1ccc(OCC(=O)NNC(=S)NC(=O)C(C)(C)C)c(Br)c1 | inconclusive: 6.51 µM [falling, partial curve]
47 | COc1ccc(-c2nnc(C3CCN(S(=O)(=O)c4ccccc4)CC3)o2)cc1 | inconclusive: 29.1 µM [falling, single point]
48 | Cc1ccc2nc(NC(=S)NC(=O)c3ccco3)sc2c1 | inconclusive: 2.06 µM [activator, partial curve, poor fit]
49 | COc1ccc(CN(C)CC(O)COc2ccc(C(=O)c3ccccc3)cc2)c(OC)c1OC (stereo not given) | inconclusive: 29.1 µM [activator, single point]
50 | Clc1ccc(N=c2ssnc2Cl)cc1 | inconclusive: 23.1 µM [falling, single point]
51 | CCCc1cc(=O)[nH]c(SCC(=O)N2N=C(c3ccc(Cl)cc3)CC2c2ccco2)n1 (stereo not given) | inactive
52 | CCc1nc(SCC(=O)Nc2ccc3c(c2)OCCO3)c2oc3ccccc3c2n1 | inconclusive: 20.6 µM [falling, partial curve]
53 | O=C(Cn1nnc2ccccc2c1=O)N[C@@H](Cc1ccccc1)C(=O)O | inactive
54 | CCCN1CCN(C(=O)c2cc(COc3ccc4ncccc4c3)on2)CC1 | active: 5.17 µM
55 | CC(C)N(c1ccccc1)c1ccc(NC(=O)C2CCCO2)cc1 (stereo not given) | inactive
56 | Cc1ccc(S(=O)(=O)N2CCN(C(=S)NCc3ccc4c(c3)OCO4)CC2)cc1 | inconclusive: 29.1 µM [falling, single point]
57 | Cc1nc(-c2cccc(NC(=O)COc3ccc(Cl)cc3)c2)cs1 | inconclusive: 23.1 µM [falling, single point]
58 | COC(=O)c1ccc(CN2CCCC(C(=O)Nc3cccc(-n4cnnn4)c3)C2)cc1 (stereo not given) | inconclusive: 29.1 µM [falling, single point]
59 | Cc1ccc(C(=O)CSc2nnc(COc3cccc(C)c3)o2)cc1 | inconclusive: 8.2 µM [falling, partial curve, poor fit]
60 | Cc1cccn2c(=O)c3cc(C(=O)NC4CCCC4)c(=N)n(C4CCCC4)c3nc12 | inactive
61 | COc1ccccc1OCCn1cc(/C=N/NC(N)=S)c2ccccc21 | inconclusive: 18.4 µM [falling, single point]
62 | CC(C)c1nnc(NC(=O)C2CCN(C(=O)Nc3ccc(Cl)cc3)CC2)s1 | inconclusive: 29.1 µM [falling, partial curve, poor fit]
63 | Nc1cc(C(=O)OCC(=O)NNC(=O)c2cccs2)ccc1Cl | inactive
64 | CCOCCCNC(=O)c1ccc2c(=O)n(Cc3ccc(OC)cc3)c(=O)[nH]c2c1 | inconclusive: 4.61 µM [falling, partial curve]
65 | Cc1nn(-c2ccccc2)c(C)c1/C=N/NC(=O)CSc1nc2ccccc2c(=O)n1-c1ccc(Br)cc1 | active: 25.9 µM

— PubChem BioAssay AID504444 (National Center for Advancing Translational Sciences (NCATS), 2011)
